Measurements reported in PubChem BioAssay AID686943 (Drosophila RNAi Screening Center, 2013).
The deposit covers about 23,000 reagents; this is an unselected part of those with a known target gene and a result. 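Extra replicates exist only for a retested subset of genes; insulin dose and duration not given; both raised and lowered dpERK matter.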 Reagents against one gene are numbered here. Further read-outs or replicates are left out here. No sequences are given here. Not stated in the record: the amount of reagent, the time to read-out.

Screen: 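Search across the genome for regulators of signalling from receptor tyrosine kinase to ERK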 (primary screen)
Cell system: Drosophila S2R+ haemocyte-like cells expressing YFP-tagged ERK (Rolled)
Reagents: long dsRNA against Drosophila genes
Challenge: insulin stimulation versus unstimulated cells; dose and duration not given
Measured: 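Antibody staining for doubly phosphorylated ERK divided by ERK-YFP signal, as plate z-scores, in insulin-treated and untreated cells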
Direction: replicate 1, z-score of dpERK with insulin: higher = more active ERK per ERK-YFP after insulin

The opening 4 entries as a preview:
| target | reagent no. | replicate 1, z-score of dpERK with insulin |
| --- | --- | --- |
| CG1172 | 1 | 0.16 |
| CG1172 | 2 | -0.62 |
| PGRP-SA | 1 | 0.38 |
| Men-b | 1 | -0.05 |

The listing, from the first entry:
| target | reagent no. | replicate 1, z-score of dpERK with insulin |
| --- | --- | --- |
| CG1172 | 1 | 0.16 |
| CG1172 | 2 | -0.62 |
| PGRP-SA | 1 | 0.38 |
| Men-b | 1 | -0.05 |
| Trs31 | 1 | 0.68 |
| CG31121 | 1 | -0.27 |
| CG31121 | 2 | -1.23 |
| Acp26Aa | 1 | 0.23 |
| CG32444 | 1 | 0.57 |
| Ir60a | 1 | -0.19 |
| CG31467 | 1 | 0.43 |
| rho-7 | 1 | -0.27 |
| slv | 1 | 0.42 |
| nmdyn-D6 | 1 | 0.43 |
| CG13862 | 1 | 0.86 |
| CG14085 | 1 | 0.72 |
| CG16799 | 1 | 0.7 |
| CG16799 | 2 | -1.24 |
| Alp10 | 1 | -0.26 |
| Rpt6R | 1 | 1.3 |
| p53 | 1 | -0.56 |
| lncRNA:Hsromega | 1 | 0.34 |
| CG13962 | 1 | 0.11 |
| prtp | 1 | 0.66 |
| prtp | 2 | 0.58 |
| Ir94f | 1 | -0.01 |
| beat-IIIa | 1 | 0.16 |
| beat-IIIa | 2 | 0.11 |
| beat-IIIa | 3 | 1.27 |
| ALiX | 1 | 0.44 |
| CG10147 | 1 | 0.54 |
| CG10910 | 1 | 0.9 |
| CG31343 | 1 | -1 |
| Hs3st-A | 1 | -2.32 |
| Hs3st-A | 2 | 0.93 |
| Hs3st-A | 3 | -1.26 |
| snu | 1 | -0.15 |
| SsRbeta | 1 | 0.41 |
| CG15923 | 1 | 0.76 |
| rswl | 1 | 0.02 |
| Frmd5 | 1 | -0.18 |
| CG17196 | 1 | -0.1 |
| yip3 | 1 | 2.29 |
| Chi | 1 | -0.66 |
| CG10029 | 1 | 2.6 |
| Cyp6a19 | 1 | 1.23 |
| Vha68-2 | 1 | 0.15 |
| e | 1 | -0.43 |
| CG12420 | 1 | 1.12 |
| Act42A | 1 | -3.52 |
| EndoGI | 1 | 0.3 |
| pgc | 1 | 0.09 |
| dj | 1 | 0.29 |
| CG7600 | 1 | 0.68 |
| msl-2 | 1 | 1.22 |
| Muc30E | 1 | -0.2 |
| eff | 1 | -0.89 |
